PubChem BioAssay AID1508597 – Cure First, 2020

Purpose: 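Genes whose silencing sensitises or protects ovarian cancer cells against rucaparib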 (primary screen)
Cells: human ovarian carcinoma lines grown from tumours: OCI-P5x (papillary serous) and OCI-C5x (clear cell)
Reagent: siRNA pool against human genes, 1.25 pmol siRNA per well
Time to read-out: 72 h or 96 h, depending on the cell culture
Conditions: rucaparib 20 µM (about IC30) or vehicle, present until read-out
Rucaparib or vehicle: Vehicle
Cell line: OCI-C5x (clear cell)
Measured: 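Luminescent ATP-based viability assay read 72 or 96 h after transfection, depending on culture, given as normalised percent viability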
Direction: viability, normalised: higher = more viable cells remaining
Active means: 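a well counts as a hit if its normalised viability is under 80 percent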
Meaning of the calls: active = viability under 80%; inactive = viability 80% or more
Shown is an unselected part of the about 2,100 reagents, in one setting of the screen. 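Calls flag viability under 80% in either arm, not effects specific to rucaparib; the reference for percent is not stated.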 A number with no mark means an inactive call. A reagent listed more than once was tested more than once; the source does not tell the runs apart. Not given: the 100% reference.

Target gene | technical replicate | viability, normalised (%)
PDE11A | 1 | 67.3 (active)
PDE11A | 2 | 52.8 (active)
PDE11A | 3 | 45.5 (active)
KSR1 | 1 | 55.2 (active)
KSR1 | 2 | 51.5 (active)
KSR1 | 3 | 47.9 (active)
CLDN23 | 1 | 32.2 (active)
CLDN23 | 2 | 39.8 (active)
CLDN23 | 3 | 46.5 (active)
INTS3 | 1 | 96.8
INTS3 | 2 | 60.8 (active)
INTS3 | 3 | 52.2 (active)
CAMK1 | 1 | 60.2 (active)
CAMK1 | 2 | 56.2 (active)
CAMK1 | 3 | 69 (active)
PDK1 | 1 | 35.3 (active)
PDK1 | 1 | 48.7 (active)
PDK1 | 2 | 57.7 (active)
PDK1 | 2 | 51 (active)
PDK1 | 3 | 37.6 (active)
PDK1 | 3 | 38.2 (active)
PRKCD | 1 | 65 (active)
PRKCD | 2 | 49 (active)
PRKCD | 3 | 43.7 (active)
PCDHB6 | 1 | 42.3 (active)
PCDHB6 | 2 | 44.1 (active)
PCDHB6 | 3 | 47 (active)
SPOCK2 | 1 | 53.8 (active)
SPOCK2 | 2 | 45.7 (active)
SPOCK2 | 3 | 47.1 (active)
H1-9P | 1 | 45.4 (active)
H1-9P | 2 | 51.5 (active)
H1-9P | 3 | 40.8 (active)
DDX3X | 1 | 29.3 (active)
DDX3X | 1 | 42.6 (active)
DDX3X | 2 | 34.5 (active)
DDX3X | 2 | 36.3 (active)
DDX3X | 3 | 34.7 (active)
DDX3X | 3 | 38.4 (active)
ENY2 | 1 | 53.3 (active)
ENY2 | 2 | 54.5 (active)
ENY2 | 3 | 57.2 (active)
DHX16 | 1 | 47.8 (active)
DHX16 | 2 | 52.2 (active)
DHX16 | 3 | 47.4 (active)
MPHOSPH8 | 1 | 57.3 (active)
MPHOSPH8 | 2 | 60.1 (active)
MPHOSPH8 | 3 | 54.8 (active)
PLCB1 | 1 | 45.9 (active)
PLCB1 | 2 | 59.5 (active)
PLCB1 | 3 | 52.4 (active)
PLK1 | 1 | 33 (active)
PLK1 | 2 | 33 (active)
PLK1 | 3 | 33.8 (active)
HMGB1 | 1 | 35.6 (active)
HMGB1 | 2 | 49 (active)
HMGB1 | 3 | 66.1 (active)
SGF29 | 1 | 85.7
SGF29 | 2 | 89
SGF29 | 3 | 91.2
BAK1 | 1 | 52.6 (active)
BAK1 | 2 | 51.4 (active)
BAK1 | 3 | 41.7 (active)
SMYD4 | 1 | 56.3 (active)
SMYD4 | 2 | 52.8 (active)
SMYD4 | 3 | 46.4 (active)
ARRB1 | 1 | 49.4 (active)
ARRB1 | 2 | 48.4 (active)
ARRB1 | 3 | 68.9 (active)
EIF2AK1 | 1 | 82.5
EIF2AK1 | 2 | 57.3 (active)
EIF2AK1 | 3 | 51.4 (active)
RFC4 | 1 | 40.1 (active)
RFC4 | 2 | 49.1 (active)
RFC4 | 3 | 45.7 (active)
